About 820 (0.21%) of roughly 390,000 compounds were called active. This list was built around the results that the source calls inconclusive (neither active nor inactive); the mix of calls is not that of the screen. Calls come from the whole dose curve; as a rule, active = well fitted inhibition curve with a large enough effect; inconclusive = small, poorly fitted or top-dose-only effect, or another doubt; inactive = no such curve, though single readings can be large or run the other way. A potency beside an inconclusive call is a rough fit, not a confirmed value.
Target: Histone acetyltransferase KAT2A (Homo sapiens) (UniProt Q92830)
Assay: qHTS Assay for Inhibitors of GCN5L2
Conditions: GCN5L2 HAT assay, ThioGlo1 CoA-SH fluorescence; activity change, negative = inhibition: at 58.9 µM (top of the series) unless noted
In short: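 Fluorescence readout, Ex340nm/Em540nm: ThioGlo1 (50uM final) reacts with free CoA thiol released as 20nM GCN5L2 acetylates H3(1-25) peptide (75uM) using acetyl-CoA (70uM). Compound and enzyme sat 15 min beforehand; 20 min room-temperature reaction.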
% is set by controls: 0 for no effect and ±100 for the full control effect; potency is the fitted concentration of half-maximal effect.

Chains of the proteins cited; added tags and fusions are not shown.
UniProt Q92830, whole entry, looked up: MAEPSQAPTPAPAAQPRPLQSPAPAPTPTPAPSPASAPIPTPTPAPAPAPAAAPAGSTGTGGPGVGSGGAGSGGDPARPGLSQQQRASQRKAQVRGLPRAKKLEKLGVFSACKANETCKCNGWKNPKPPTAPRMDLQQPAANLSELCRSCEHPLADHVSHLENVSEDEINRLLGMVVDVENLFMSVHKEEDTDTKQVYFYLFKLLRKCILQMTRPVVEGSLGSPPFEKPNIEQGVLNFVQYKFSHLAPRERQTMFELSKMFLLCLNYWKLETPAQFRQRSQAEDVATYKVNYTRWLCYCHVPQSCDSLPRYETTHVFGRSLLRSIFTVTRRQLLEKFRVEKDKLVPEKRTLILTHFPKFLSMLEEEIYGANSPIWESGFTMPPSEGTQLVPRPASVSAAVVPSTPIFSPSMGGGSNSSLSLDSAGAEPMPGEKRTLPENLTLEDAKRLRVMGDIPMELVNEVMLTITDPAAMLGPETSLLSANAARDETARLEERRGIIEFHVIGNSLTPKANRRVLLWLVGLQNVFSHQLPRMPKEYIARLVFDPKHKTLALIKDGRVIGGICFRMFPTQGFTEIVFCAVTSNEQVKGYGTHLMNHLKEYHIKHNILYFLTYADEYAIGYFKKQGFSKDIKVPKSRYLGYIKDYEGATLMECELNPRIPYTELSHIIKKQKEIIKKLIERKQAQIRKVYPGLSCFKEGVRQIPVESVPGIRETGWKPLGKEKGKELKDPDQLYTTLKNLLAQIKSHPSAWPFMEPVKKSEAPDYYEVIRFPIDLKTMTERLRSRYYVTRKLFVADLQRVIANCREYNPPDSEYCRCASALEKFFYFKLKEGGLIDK

SMILES | Potency | activity change, negative = inhibition
Nc1ccccc1SC(C[N+](=O)[O-])c1ccccc1 (stereo not given) | inconclusive: 25.1 µM [inhibitor, partial curve] | –
Cn1c(/C=C/c2ccccc2)nc2ccccc21 | inactive | –
O=C(/C=C/c1ccc(/C=C/C(=O)Nc2ccc(C3=NCCN3)cc2)cc1)Nc1ccc(C2=NCCN2)cc1 | inconclusive: 39.8 µM [inhibitor, single point] | –
c1ccc2[nH]c(CSc3ncnc4c3oc3ccccc34)nc2c1 | active: 39.8 µM | –
O=C(CCCN1Cc2ccccc2C1)c1ccc(F)cc1 | inconclusive: 7.08 µM [inhibitor, single point] | –
Cn1sccc1=O | inconclusive: 35.5 µM [inhibitor, single point] | –
CCOC(=O)c1cnc2c(N=Nc3ccccc3)c(N)nn2c1N | inconclusive: 35.5 µM [inhibitor, single point] | –
O=C(CSc1nnc(COc2ccccc2)o1)NCCc1ccccc1 | inactive | –
CCOC(=O)C1C(C(=O)OC)=C(c2ccc(OC)cc2)c2ccc(OC)cc2N1S(=O)(=O)C(F)(F)F (stereo not given) | inconclusive: 39.8 µM [inhibitor, single point] | –
CCOc1cccc(CC(=O)N2CCc3c([nH]c4ccccc34)C2c2ccc(F)cc2)c1OCC (stereo not given) | inconclusive: 39.8 µM [inhibitor, single point] | –
O=C(COc1ccc(S(=O)(=O)NC2CCCCC2)cc1)Nc1ccc(C(F)(F)F)cc1 | inactive | –
Cc1c(C(=O)NCc2ccccc2F)oc2ccccc12 | inconclusive: 20 µM [inhibitor, partial curve] | –
COc1ccccc1NC(=S)N1CCC(NC(=O)NC23CC4CC(CC(C4)C2)C3)CC1 | inconclusive: 8.91 µM [inhibitor, single point] | –
Cn1c(CCn2ccccc2=O)nc2cc(NC(=O)COc3ccccc3)ccc21 | inconclusive: 7.94 µM [inhibitor, full curve] | –
O=C(N/N=C/c1cc([N+](=O)[O-])ccc1O)c1cc(-c2ccccc2)nc2ccccc12 | inactive | –
Cc1ccc(N2CC(C(=O)N/N=C/c3c(F)cccc3Cl)CC2=O)cc1 (stereo not given) | inconclusive: 7.08 µM [inhibitor, full curve] | –
CS(=O)(=O)N(CCc1ccccc1)CC(=O)Nc1ccc(Br)cc1F | inconclusive: 7.08 µM [inhibitor, single point] | –
O=C(Nc1ccc(NC(=O)C2CC2)cc1)c1cccs1 | inconclusive: 3.16 µM [inhibitor, partial curve, poor fit] | –
CCC1Nc2ncnc(N3CCN(c4ccccc4)CC3)c2N(Cc2ccc(Br)cc2)C1=O (stereo not given) | inactive | –
CCCCOC(=O)COc1ccc(Cl)cc1Cl | inconclusive: 31.6 µM [inhibitor, single point] | –
COc1ccccc1NC(=O)Cc1c(C(=O)O)[nH]c2ccc(Cl)cc12 | inconclusive: 28.2 µM [inhibitor, partial curve] | –
O=C(NCc1ccccc1)C1CCN(C(=O)Cc2ccccc2)CC1 | inconclusive: 2 µM [inhibitor, full curve] | –
CCN(CC)Cc1nc2c(c(=O)[nH]1)C1(CCCC1)Cc1ccccc1-2 | inactive | –
CCN(CC)c1ccc(NC(=O)COC(=O)c2cccs2)cc1 | inactive | –

SMILES | Potency | activity change, negative = inhibition
COC(CNC(=O)c1ccc(N2CCc3ccccc32)c([N+](=O)[O-])c1)OC | inactive | –
Cc1ccn(CC(=O)NC2CCCN(Cc3ccc(CC(C)C)cc3)C2)n1 (stereo not given) | inconclusive: 0.562 µM [inhibitor, full curve, poor fit] | –
COC(=O)c1ccc(COc2cccc3c2OC(C)(C)C3)cc1 | inconclusive: 1.58 µM [inhibitor, full curve, poor fit] | –
COc1ccc(-c2nc3cnc(N4CCNCC4)nc3n(C3CC3)c2=O)cc1 | inconclusive: 10 µM [inhibitor, partial curve] | –
CC(C)Cn1c(SCC(=O)c2ccc(Cl)s2)nnc1-c1ccco1 | inconclusive: 35.5 µM [inhibitor, single point] | –
CCOc1ccc(OCC)c(NC(=O)CCC(=O)N2CCOc3ccccc32)c1 | inactive | –
COCCn1c(=O)c(-c2cccs2)nc2cnc(Nc3ccccc3)nc21 | inconclusive: 25.1 µM [inhibitor, partial curve] | –
N#Cc1c(N(CCO)CCO)nc(N)c2c(N)nc3c(c12)CC(=O)N3CC1CCCO1 (stereo not given) | inconclusive: 5.62 µM [inhibitor, partial curve] | –
COc1ccc(C(NCC(=O)NC(C)c2ccc(Cl)cc2)c2ccccc2)cc1 (stereo not given) | inconclusive: 44.7 µM [inhibitor, partial curve, poor fit] | –
COc1ccc2c(c1)C(=O)CC(c1ccc3c(c1)OCCO3)O2 (stereo not given) | inconclusive: 25.1 µM [inhibitor, partial curve, poor fit] | –
Cc1cccc(N2C(=O)c3cccc4c(N)ccc(c34)C2=O)c1 | inactive | –
CCOCC | inconclusive: 0.794 µM [inhibitor, single point] | –
CC(=O)Nc1ccc(C(=O)NNC(=O)c2cc([N+](=O)[O-])cc([N+](=O)[O-])c2)cc1 | inconclusive: 7.08 µM [inhibitor, single point] | –
COc1ccc(Cc2nnc(NC(=O)Cc3cccs3)s2)cc1 | inconclusive: 31.6 µM [inhibitor, partial curve] | –
O=C(N/N=C/C(Cl)=C/c1ccccc1)c1cnccn1 | inactive | –
COc1ccc(S(=O)(=O)N2CCN(C(=O)C3COc4ccccc4O3)CC2)cc1 (stereo not given) | inconclusive: 20 µM [inhibitor, partial curve] | –
CCn1c(SCC(=O)N/N=C/C=C/c2ccco2)nnc1-c1ccccc1 | inactive | –
COC(=O)[C@]1(Cc2ccccc2)N[C@H](CN(C)C(=O)Nc2ccc(Cl)cc2)[C@@H]2C(=O)N(Cc3ccccc3)C(=O)[C@@H]21 | inactive | –
O=C(OCC(=O)N1CCc2ccccc21)c1ccc([N+](=O)[O-])cc1 | inconclusive: 35.5 µM [inhibitor, single point] | –
CCOc1ccccc1C(=O)N(CCC(=O)OC)c1ccccn1 | inconclusive: 39.8 µM [inhibitor, single point] | –
O=c1[nH]c(=O)n([C@H]2C[C@H](O)[C@@H](CO)O2)cc1/C=C/Br | inactive | –
COc1ccc(OC)c(Nc2nc(NCc3ccco3)c3ccccc3n2)c1 | inactive | –
O=C(NN=C1CCCC1)c1ccccc1O | inactive | –
O=C(NCc1ccc2c(c1)OCO2)c1cc(COc2c(F)cccc2F)on1 | inconclusive: 39.8 µM [inhibitor, single point] | –

21 entries from above, as tab-separated lines.
SMILES	Potency	activity change, negative = inhibition
Cc1ccn(CC(=O)NC2CCCN(Cc3ccc(CC(C)C)cc3)C2)n1 (stereo not given)	inconclusive: 0.562 µM [inhibitor, full curve, poor fit]	–
COC(=O)c1ccc(COc2cccc3c2OC(C)(C)C3)cc1	inconclusive: 1.58 µM [inhibitor, full curve, poor fit]	–
COc1ccc(-c2nc3cnc(N4CCNCC4)nc3n(C3CC3)c2=O)cc1	inconclusive: 10 µM [inhibitor, partial curve]	–
CC(C)Cn1c(SCC(=O)c2ccc(Cl)s2)nnc1-c1ccco1	inconclusive: 35.5 µM [inhibitor, single point]	–
CCOc1ccc(OCC)c(NC(=O)CCC(=O)N2CCOc3ccccc32)c1	inactive	–
COCCn1c(=O)c(-c2cccs2)nc2cnc(Nc3ccccc3)nc21	inconclusive: 25.1 µM [inhibitor, partial curve]	–
N#Cc1c(N(CCO)CCO)nc(N)c2c(N)nc3c(c12)CC(=O)N3CC1CCCO1 (stereo not given)	inconclusive: 5.62 µM [inhibitor, partial curve]	–
COc1ccc(C(NCC(=O)NC(C)c2ccc(Cl)cc2)c2ccccc2)cc1 (stereo not given)	inconclusive: 44.7 µM [inhibitor, partial curve, poor fit]	–
COc1ccc2c(c1)C(=O)CC(c1ccc3c(c1)OCCO3)O2 (stereo not given)	inconclusive: 25.1 µM [inhibitor, partial curve, poor fit]	–
CCOCC	inconclusive: 0.794 µM [inhibitor, single point]	–
CC(=O)Nc1ccc(C(=O)NNC(=O)c2cc([N+](=O)[O-])cc([N+](=O)[O-])c2)cc1	inconclusive: 7.08 µM [inhibitor, single point]	–
COc1ccc(Cc2nnc(NC(=O)Cc3cccs3)s2)cc1	inconclusive: 31.6 µM [inhibitor, partial curve]	–
O=C(N/N=C/C(Cl)=C/c1ccccc1)c1cnccn1	inactive	–
COc1ccc(S(=O)(=O)N2CCN(C(=O)C3COc4ccccc4O3)CC2)cc1 (stereo not given)	inconclusive: 20 µM [inhibitor, partial curve]	–
CCn1c(SCC(=O)N/N=C/C=C/c2ccco2)nnc1-c1ccccc1	inactive	–
COC(=O)[C@]1(Cc2ccccc2)N[C@H](CN(C)C(=O)Nc2ccc(Cl)cc2)[C@@H]2C(=O)N(Cc3ccccc3)C(=O)[C@@H]21	inactive	–
CCOc1ccccc1C(=O)N(CCC(=O)OC)c1ccccn1	inconclusive: 39.8 µM [inhibitor, single point]	–
O=c1[nH]c(=O)n([C@H]2C[C@H](O)[C@@H](CO)O2)cc1/C=C/Br	inactive	–
COc1ccc(OC)c(Nc2nc(NCc3ccco3)c3ccccc3n2)c1	inactive	–
O=C(NN=C1CCCC1)c1ccccc1O	inactive	–
O=C(NCc1ccc2c(c1)OCO2)c1cc(COc2c(F)cccc2F)on1	inconclusive: 39.8 µM [inhibitor, single point]	–

Later entries

SMILES | Potency | activity change, negative = inhibition
CC(C)=C1C(=O)NN(c2cccc(Cl)c2)C1=O | inactive | –
COc1cccc(-c2cc(C(=O)N/N=C/c3ccco3)c3ccccc3n2)c1 | inconclusive: 39.8 µM [inhibitor, single point] | –
CCc1ccccc1NC(=O)CCS(=O)(=O)c1ccc(Br)cc1 | inactive | –
Cc1cc(=O)oc2c(CN3CCC(C)CC3)c(O)c(Cl)cc12 | inconclusive: 35.5 µM [inhibitor, single point] | –
COc1ccc(-n2nnc3c(=O)n(CC(=O)N4CCCc5ccccc54)cnc32)cc1 | inconclusive: 39.8 µM [inhibitor, single point] | –
C=CCn1c(SCC(C)=O)nc2scc(-c3ccco3)c2c1=O | inconclusive: 17.8 µM [inhibitor, partial curve] | –
CCOc1ccc(-n2c(N)c(-c3nc4ccccc4n3C)c3nc4ccccc4nc32)cc1 | inconclusive: 4.47 µM [inhibitor, single point] | –
CCCn1cc(SCC(=O)NCc2ccc3c(c2)OCO3)c2ccccc21 | inconclusive: 39.8 µM [inhibitor, single point] | –
Cc1ccccc1NC(=O)Cc1nnc(SCC(=O)c2ccc(Br)cc2)n1C | – | inconclusive: -108% [inhibitor] [at 0.501 µM]
O=C(CCl)Nc1cccc(S(=O)(=O)NC2=NCCC2)c1 | inactive | –
O=C(Nc1ccccc1F)c1cc2c(s1)-c1ccccc1S(=O)(=O)C2 | inconclusive: 22.4 µM [inhibitor, partial curve] | –
CNc1nc(N)c([N+](=O)[O-])c(N2CCCCCC2)n1 | inactive | –
COc1cccc(OCC(O)CN2CCN(c3ccc(Cl)cc3)CC2)c1 (stereo not given) | inconclusive: 3.55 µM [inhibitor, full curve] | –
CCOC(=O)/C=C1\CC(C(=O)OCC)Oc2ccccc21 (stereo not given) | inconclusive: 8.91 µM [inhibitor, full curve, poor fit] | –
CC(C)N(CCC(=O)c1ccc2ccccc2c1)Cc1ccccc1 | inconclusive: 14.1 µM [inhibitor, partial curve, poor fit] | –
COc1cccc(NC(=O)CN(C)C(=O)c2cc(-c3ccc(C)o3)nc3ccccc23)c1 | inconclusive: 39.8 µM [inhibitor, single point] | –
O=C(Nc1ccc(-c2nnn(CC(=O)N3CCN(C(=O)c4ccco4)CC3)n2)cc1)c1ccc(F)cc1 | inconclusive: 20 µM [inhibitor, single point] | –
CSc1ccc(NC(=O)NCc2ccccc2)cc1 | inconclusive: 0.794 µM [inhibitor, full curve, poor fit] | –
CCOC(=O)C1(CCc2ccccc2)CCN(C(=O)CN2CCOC2=O)CC1 | inconclusive: 0.126 µM [inhibitor, partial curve, poor fit] | –
Cc1ccc(S(=O)(=O)Nc2ccc(N3CCOCC3)nc2)cc1 | inactive | –
CCC(=O)Nc1cc(Cl)ccc1C(=O)O | inactive | –
CSc1ccc(/C=C2/C(C)=C(CC(=O)O)c3cc(F)ccc32)cc1 | inconclusive: 28.2 µM [inhibitor, single point] | –
